According to paper PMC7819943, “Rice protein-binding microarrays: a tool to detect cis-acting elements near promoter regions in rice”:
Some of the results follow.

The chains behind the UniProt entries cited, without tags or fusion partners.
UniProt Q0JBA9, entry or part of it: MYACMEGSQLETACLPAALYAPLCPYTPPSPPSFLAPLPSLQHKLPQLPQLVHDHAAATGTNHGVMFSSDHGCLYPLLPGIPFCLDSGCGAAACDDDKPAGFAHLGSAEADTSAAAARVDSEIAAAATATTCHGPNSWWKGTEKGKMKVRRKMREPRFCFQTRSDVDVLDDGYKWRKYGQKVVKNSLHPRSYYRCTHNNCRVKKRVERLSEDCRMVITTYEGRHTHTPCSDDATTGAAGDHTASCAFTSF

biological target: OsWRKY34 (Oryza sativa, UniProt Q0JBA9 1-250); assay: protein-binding microarray (RPBM); PBS, 2% BSA, 51.3 ng/ul salmon testes DNA, 50 uM zinc acetate, 200 nM TF, 25 C, 1 h; high values mean tight binding; details: protein: recombinant; tags: N-terminal polyhistidine and DsRed monomer fusion (pET32a); label: CyDye5-dUTP incorporated in the synthesized complementary strand; 3' TTTTT single-stranded linker to array surface; dsDNA, one strand shown
Summary of the method: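 For the binding signal, per-feature fluorescence intensity was read in arbitrary units on an Axon 4000B scanner. Before scanning, a 2% BSA-blocked custom Agilent array made double-stranded with Cy5-dUTP was washed after 1 h at 25 °C with 200 nM protein and 50 µM zinc acetate. The proteins were Ni–NTA-purified transcription factors with N-terminal polyhistidine and DsRed fusions, expressed in E. coli BL21-CodonPlus.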

Row | Sequence | binding signal
1 | CTTCTAATTTTTTCGTCACTTACACAGAAACATTTAACTTCGGAGTCACCTAGTGCAG | 8220 fluorescence intensity (a.u.)
2 | GTTCCTCTTGCTGCTATTCATGTCATGATATCACAACTCACGGAGTCACCTAGTGCAG | 9860 fluorescence intensity (a.u.)
3 | AGACGAACGGTCAAACATGTTTAAAAAAGTCAACAGCGTTCGGAGTCACCTAGTGCAG | 10800 fluorescence intensity (a.u.)
4 | TCATAATTTACATGTAAACTGTGTAATTGTTTTTTTTCACCGGAGTCACCTAGTGCAG | 8370 fluorescence intensity (a.u.)
5 | CCTCTCGTTCCTCCGTGTGGTTTCCGGCATGTATATATAACGGAGTCACCTAGTGCAG | 10200 fluorescence intensity (a.u.)
6 | CCCCGCCCCAAATATTCTCTCGCATTCGCGTTCCCACCGCCGGAGTCACCTAGTGCAG | 8280 fluorescence intensity (a.u.)
7 | GTGGTGTATGTATACGTCTGTGTTGTAATCGTATGAAAATCGGAGTCACCTAGTGCAG | 8570 fluorescence intensity (a.u.)
8 | GTCTCCGAGTCTTATCCGCTCAACGCGGTCAGTACGCGCGCGGAGTCACCTAGTGCAG | 8250 fluorescence intensity (a.u.)
9 | ACTAACATTCGGTGGGGTTTTTGTAATTTTCCCAACTTCACGGAGTCACCTAGTGCAG | 8380 fluorescence intensity (a.u.)
10 | CCACCCGCTGTCTCTGCTGGACTCCACTTTCTCGCCTCTACGGAGTCACCTAGTGCAG | 11700 fluorescence intensity (a.u.)
11 | GCGCCCTAACAACCCACCCCGCAAGTCGGCAACCCTAGCCCGGAGTCACCTAGTGCAG | 9480 fluorescence intensity (a.u.)
12 | GGGGACATGAGGTGGGCACGTGAGCGAGGGGCACATCTGTCGGAGTCACCTAGTGCAG | 8900 fluorescence intensity (a.u.)
13 | TGAAATTTCAACTTGATCCCATCCATGCTCTTACCGTCATCGGAGTCACCTAGTGCAG | 8350 fluorescence intensity (a.u.)
14 | TACGTGGCGTGAAATCTCTGATGTGGGAGGCTGGGGTTGACGGAGTCACCTAGTGCAG | 10500 fluorescence intensity (a.u.)
15 | TTAATTCTCATGCACTTTTTCTTTGCTTTCTCTATATGACCGGAGTCACCTAGTGCAG | 14100 fluorescence intensity (a.u.)
16 | ATTTGCTTAATTCTTGTCTACTTGACCTCCCTGACATATTCGGAGTCACCTAGTGCAG | 8180 fluorescence intensity (a.u.)
17 | AATCCTAACATTACACTTCTTAATCTTGCATCTAATTTTCCGGAGTCACCTAGTGCAG | 9270 fluorescence intensity (a.u.)
18 | ACCATTTTATAAGCCATTTTCTTGACACCTGCTTTGTACGCGGAGTCACCTAGTGCAG | 10200 fluorescence intensity (a.u.)
19 | TTCAGTGGGGTTTTCGTGGGGTCTCTCATAGTCTTCACGCCGGAGTCACCTAGTGCAG | 9060 fluorescence intensity (a.u.)
20 | CCGCCGGCCGCCGTCCTCGCCATCTCCGCCGGCCGCCGTCCGGAGTCACCTAGTGCAG | 8440 fluorescence intensity (a.u.)
21 | TTCTTCATTATCTCTATTTGTGGTGCTATTGGTTTATTTTCGGAGTCACCTAGTGCAG | 8980 fluorescence intensity (a.u.)
22 | TTGCGTTGACACTTGAACACGCTTCGCTTTGGTTTTGGTCCGGAGTCACCTAGTGCAG | 8340 fluorescence intensity (a.u.)
23 | GGCCCATTCTTCTCCGACCAACAATACCTGCGCTTTCCATCGGAGTCACCTAGTGCAG | 11800 fluorescence intensity (a.u.)
24 | CGTACTTCTAAATCTTTTCCATTTCCTTCCCTTTGGAAAACGGAGTCACCTAGTGCAG | 8440 fluorescence intensity (a.u.)
25 | GGGTTCAGAAATAGGTGGTGGATAACAATCTGCAGCAGAACGGAGTCACCTAGTGCAG | 8420 fluorescence intensity (a.u.)
26 | TTGGGGTTGGACCGGTTTTCATCTGTTCTTGTCCTGAGAGCGGAGTCACCTAGTGCAG | 10800 fluorescence intensity (a.u.)
27 | ATCAGCATTTGCATCACCTTCATCAATCCTCTGCTTGGTACGGAGTCACCTAGTGCAG | 9350 fluorescence intensity (a.u.)

Row | Sequence | binding signal
28 | AAAATTTAAATTTTGACTTTTGCTTATTGATTTTTAGTTCCGGAGTCACCTAGTGCAG | 10200 fluorescence intensity (a.u.)
29 | ACAAATTGCGCGCTCCACGGCCTATATTCGGCCCAACCTGCGGAGTCACCTAGTGCAG | 9760 fluorescence intensity (a.u.)
30 | GACTCTGAACCATTTCCATCTGGATTCAGGTTTATGCTGTCGGAGTCACCTAGTGCAG | 8130 fluorescence intensity (a.u.)
31 | GTTCATTATTGCCGTTTACTAATACCATGTCCACACGGCCCGGAGTCACCTAGTGCAG | 9710 fluorescence intensity (a.u.)
32 | GCAACCACTGTCTCGCTCTCCGCCGCCATCGCCGCCGCCGCGGAGTCACCTAGTGCAG | 10500 fluorescence intensity (a.u.)
33 | TATATATATATATATATATATATAATGTTTCATCACCTGTCGGAGTCACCTAGTGCAG | 11400 fluorescence intensity (a.u.)
34 | TTCCCTTCTGCCGTACTGTTTCAAATCTCAACCATTTGTACGGAGTCACCTAGTGCAG | 10400 fluorescence intensity (a.u.)
35 | AAATCACATACTCTTTCTTCTTCTTTTTGTTGTATGAAGTCGGAGTCACCTAGTGCAG | 10100 fluorescence intensity (a.u.)
36 | CCAAATCAATCAGCCACCTCCAGTGCGTCGTTCTCTCGACCGGAGTCACCTAGTGCAG | 8410 fluorescence intensity (a.u.)
37 | GTAGTCTTTTTCTTCTTTGTACTTATCGTTTAAAAATTGACGGAGTCACCTAGTGCAG | 8230 fluorescence intensity (a.u.)
38 | CTCGGGAGAGGGGAGGCGTAGATTCTTCTGTTGCTTCAGTCGGAGTCACCTAGTGCAG | 10300 fluorescence intensity (a.u.)
39 | CTTCCAATTCATTCTATAGTCTGTACAACTATAACTTTTACGGAGTCACCTAGTGCAG | 9330 fluorescence intensity (a.u.)
40 | GATCTGGTGTGTTAATTTGGATTTGTGTTTGTCCTTTTTCCGGAGTCACCTAGTGCAG | 14800 fluorescence intensity (a.u.)
41 | AACACAGCACCTAGTACCGCATGATCACCTATATATACACCGGAGTCACCTAGTGCAG | 12300 fluorescence intensity (a.u.)
42 | TGAGAACAACCTGAACCTCACAACTCGTACTATCCCTTTGCGGAGTCACCTAGTGCAG | 8440 fluorescence intensity (a.u.)
43 | ACGATACATCGGTGCGGTTTGGTTTGGTGAATCCTCCTCGCGGAGTCACCTAGTGCAG | 8100 fluorescence intensity (a.u.)
44 | GGTCGCTGTCGTTGGCGGGTGCGGGGAGGTGGCGGTTACGCGGAGTCACCTAGTGCAG | 12600 fluorescence intensity (a.u.)
45 | TACCCGTGACCAACCCGACCCGTTGCCATCCCTATTTAGGCGGAGTCACCTAGTGCAG | 8720 fluorescence intensity (a.u.)
46 | CGGAGATCCGCGGCGAGGAGGGGAGGGAGGGGAAGCAAGCCGGAGTCACCTAGTGCAG | 10600 fluorescence intensity (a.u.)
47 | CCGATACCGTATCGCTCGCGTATCCCACGTATCGCCGTATCGGAGTCACCTAGTGCAG | 8130 fluorescence intensity (a.u.)
48 | TTGTTCATTATACCGGTGGTTATAGTTGGATTCAGGTGTACGGAGTCACCTAGTGCAG | 8500 fluorescence intensity (a.u.)
49 | CCCAAAGTCAACCACATACGTGCTGTTGTGTAGTCACATTCGGAGTCACCTAGTGCAG | 9330 fluorescence intensity (a.u.)
50 | TTGGTAGTGTTGGTTGTGTTTAGTTTGTTAACTTATCAAACGGAGTCACCTAGTGCAG | 8690 fluorescence intensity (a.u.)
51 | CCTCTACAACCACCCACTATCGTTGCCACCTCCCACAAACCGGAGTCACCTAGTGCAG | 12300 fluorescence intensity (a.u.)
52 | TTCCTACTGTATCTGCGTCGTGATATGATCTCTAACTTTGCGGAGTCACCTAGTGCAG | 9330 fluorescence intensity (a.u.)
53 | CACGCTCGCCTTCATCGCCGCTCTGTTCAACGAGGAGCTCCGGAGTCACCTAGTGCAG | 10700 fluorescence intensity (a.u.)
54 | TCCTGCAATCTCACATTTGTCGAACCTAGCAGAACTTTACCGGAGTCACCTAGTGCAG | 9760 fluorescence intensity (a.u.)

Shown with each value named: entries from further up
AAAATTTAAATTTTGACTTTTGCTTATTGATTTTTAGTTCCGGAGTCACCTAGTGCAG
  binding signal: 10200 fluorescence intensity (a.u.)
CTCGGGAGAGGGGAGGCGTAGATTCTTCTGTTGCTTCAGTCGGAGTCACCTAGTGCAG
  binding signal: 10300 fluorescence intensity (a.u.)
